Assay results published in paper PMC5594916.
Results are given in words; binding and its absence hold for the method and conditions named. In cells and extracts the contact can be indirect. Some results given as binding are weak or reduced against the parent protein; the word gives no strength.

Amino acid sequences for entries named in this document (tags omitted).
UniProt P09651: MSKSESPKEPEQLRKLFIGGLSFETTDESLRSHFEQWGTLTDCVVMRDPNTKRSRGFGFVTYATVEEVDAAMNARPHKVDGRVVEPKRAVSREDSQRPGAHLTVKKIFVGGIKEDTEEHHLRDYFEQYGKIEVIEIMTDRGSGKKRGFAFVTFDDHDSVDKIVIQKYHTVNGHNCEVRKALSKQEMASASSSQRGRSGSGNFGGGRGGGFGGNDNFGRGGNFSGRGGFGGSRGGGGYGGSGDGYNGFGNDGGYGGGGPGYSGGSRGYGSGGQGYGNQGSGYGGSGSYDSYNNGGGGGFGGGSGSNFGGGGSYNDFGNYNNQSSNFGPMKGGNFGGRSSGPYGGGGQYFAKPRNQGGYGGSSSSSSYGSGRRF

Target: hnRNPA1 (human (endogenous in HeyA8 and HeyA8-MDR)) (UniProt P09651)
Assay: co-IP; HeyA8 and HeyA8-MDR cells lysed, lysates incubated with hnRNPA1 antibody, then hnRNPA1 Pull-down and Detection Kit (Thermo Scientific); the legend calls it a pull-down assay

- binding: binds
B1: Drosha (protein, UniProt Q9NRR4 1-1374)
chain: MMQGNTCHRMSFHPGRGCPRGRGGHGARPSAPSFRPQNLRLLHPQQPPVQYQYEPPSAPSTTFSNSPAPNFLPPRPDFVPFPPPMPPSAQGPLPPCPIRPPFPNHQMRHPFPVPPCFPPMPPPMPCPNNPPVPGAPPGQGTFPFMMPPPSMPHPPPPPVMPQQVNYQYPPGYSHHNFPPPSFNSFQNNPSSFLPSANNSSSPHFRHLPPYPLPKAPSERRSPERLKHYDDHRHRDHSHGRGERHRSLDRRERGRSPDRRRQDSRYRSDYDRGRTPSRHRSYERSRERERERHRHRDNRRSPSLERSYKKEYKRSGRSYGLSVVPEPAGCTPELPGEIIKNTDSWAPPLEIVNHRSPSREKKRARWEEEKDRWSDNQSSGKDKNYTSIKEKEPEETMPDKNEEEEEELLKPVWIRCTHSENYYSSDPMDQVGDSTVVGTSRLRDLYDKFEEELGSRQEKAKAARPPWEPPKTKLDEDLESSSESECESDEDSTCSSSSDSEVFDVIAEIKRKKAHPDRLHDELWYNDPGQMNDGPLCKCSAKARRTGIRHSIYPGEEAIKPCRPMTNNAGRLFHYRITVSPPTNFLTDRPTVIEYDDHEYIFEGFSMFAHAPLTNIPLCKVIRFNIDYTIHFIEEMMPENFCVKGLELFSLFLFRDILELYDWNLKGPLFEDSPPCCPRFHFMPRFVRFLPDGGKEVLSMHQILLYLLRCSKALVPEEEIANMLQWEELEWQKYAEECKGMIVTNPGTKPSSVRIDQLDREQFNPDVITFPIIVHFGIRPAQLSYAGDPQYQKLWKSYVKLRHLLANSPKVKQTDKQKLAQREEALQKIRQKNTMRREVTVELSSQGFWKTGIRSDVCQHAMMLPVLTHHIRYHQCLMHLDKLIGYTFQDRCLLQLAMTHPSHHLNFGMNPDHARNSLSNCGIRQPKYGDRKVHHMHMRKKGINTLINIMSRLGQDDPTPSRINHNERLEFLGDAVVEFLTSVHLYYLFPSLEEGGLATYRTAIVQNQHLAMLAKKLELDRFMLYAHGPDLCRESDLRHAMANCFEALIGAVYLEGSLEEAKQLFGRLLFNDPDLREVWLNYPLHPLQLQEPNTDRQLIETSPVLQKLTEFEEAIGVIFTHVRLLARAFTLRTVGFNHLTLGHNQRMEFLGDSIMQLVATEYLFIHFPDHHEGHLTLLRSSLVNNRTQAKVAEELGMQEYAITNDKTKRPVALRTKTLADLLESFIAALYIDKDLEYVHTFMNVCFFPRLKEFILNQDWNDPKSQLQQCCLTLRTEGKEPDIPLYKTLQTVGPSHARTYTVAVYFKGERIGCGKGPSIQQAEMGAAMDALEKYNFPQMAHQKRFIERKYRQELKEMRWEREHQEREPDETEDIKK
